According to doi:10.1101/2023.07.11.548616:
These are yes or no findings as the source states them, for the method shown. In cells and extracts the contact can be indirect. Here binding means that the protein was enriched with, or labelled near, the bait; the list need not be complete. A no says only that the protein was not detected with the bait. For some of these results: Where a sequence is shown, tags or fusion partners need not be part of it. Values belong to the molecule of their own block, whether it stands above or below them.

Assays:
GFP BUB3.1 = target: T1, GFP BUB3.1 (UniProt Q9LJN8); assay: affinity purification with mass spectrometry
T1 sequence: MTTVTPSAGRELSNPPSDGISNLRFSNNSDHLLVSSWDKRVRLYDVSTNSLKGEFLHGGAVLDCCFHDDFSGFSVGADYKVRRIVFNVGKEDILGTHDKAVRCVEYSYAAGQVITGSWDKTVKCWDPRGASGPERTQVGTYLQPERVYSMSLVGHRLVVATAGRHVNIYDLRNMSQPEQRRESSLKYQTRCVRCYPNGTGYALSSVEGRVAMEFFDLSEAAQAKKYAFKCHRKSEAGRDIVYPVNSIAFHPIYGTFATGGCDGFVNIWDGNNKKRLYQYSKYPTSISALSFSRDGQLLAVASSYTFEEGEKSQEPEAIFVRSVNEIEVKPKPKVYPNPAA

[1] = target: AtMCRS1-GFP fusion protein (Arabidopsis thaliana); assay: affinity purification with mass spectrometry

binding (GFP BUB3.1): no binding
Molecule: DP1, a paralog of DRMY1 (A. thaliana (endogenous in the plants))

binding (GFP BUB3.1): no binding
Molecule: Development Related Myb-like1 (DRMY1) (A. thaliana (endogenous in the plants))

binding (GFP BUB3.1): no binding
Molecule: AtMCRS1 (endogenous) (A. thaliana (endogenous in the plants))

binding [1]: no binding
B1: BUB3.1 (endogenous) (protein, UniProt Q9LJN8 1-340)
chain: T1 sequence
